From the supplement of paper PMC8728848
Some of the results follow.

Assays:
Experiment in all cases: glycan array binding signal (z-score within array); higher = stronger binding
Settings in all cases: glycan notation: IUPAC condensed, linker removed
[1] = biological target: Gal(b1-3)GlcNAc(b1-2)Man(a1-3)[Gal(b1-3)GlcNAc(b1-2)Man(a1-6)]Man(b1-4)GlcNAc(b1-4)GlcNAc
Outline: (§1)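 Columns mapping to the same glycan were averaged after glycan names were converted to IUPAC-condensed notation. The data come from 3228 arrays in the Consortium for Functional Glycomics database, limited to those with an available protein sequence. Binding is reported as a within-array Z-score averaged across arrays of one protein sequence and across linkers.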

[2] = biological target: Gal(b1-3)GlcNAc(b1-2)Man(a1-3)[Gal(b1-3)GlcNAc(b1-2)Man(a1-6)]Man(b1-4)GlcNAc(b1-4)[Fuc(a1-6)]GlcNAc
Outline: as §1

[3] = biological target: Gal(b1-3)GlcNAc(b1-2)Man(a1-3)[GlcNAc(b1-4)][Gal(b1-3)GlcNAc(b1-2)Man(a1-6)]Man(b1-4)GlcNAc(b1-4)GlcNAc
Outline: as §1

[4] = biological target: Gal(b1-3)GlcNAc(b1-2)[Gal(b1-3)GlcNAc(b1-6)]Man(a1-6)[Gal(b1-3)GlcNAc(b1-2)Man(a1-3)]Man(b1-4)GlcNAc(b1-4)GlcNAc
Outline: as §1

[5] = biological target: Gal(b1-3)GlcNAc(b1-3)Gal(b1-3)GlcNAc
Outline: as §1

[6] = biological target: Gal(b1-3)GlcNAc(b1-3)Gal(b1-4)Glc
Outline: as §1

[7] = biological target: Gal(b1-3)GlcNAc(b1-3)Gal(b1-4)GlcNAc
Outline: as §1

[8] = biological target: Gal(b1-3)GlcNAc(b1-3)Gal(b1-4)GlcNAc(b1-2)Man(a1-3)[Gal(b1-3)GlcNAc(b1-3)Gal(b1-4)GlcNAc(b1-2)Man(a1-6)]Man(b1-4)GlcNAc(b1-4)GlcNAc
Outline: as §1

[9] = biological target: Gal(b1-3)GlcNAc(b1-3)Gal(b1-4)GlcNAc(b1-2)[Gal(b1-3)GlcNAc(b1-3)Gal(b1-4)GlcNAc(b1-6)]Man(a1-6)[Gal(b1-3)GlcNAc(b1-3)Gal(b1-4)GlcNAc(b1-2)Man(a1-3)]Man(b1-4)GlcNAc(b1-4)[Fuc(a1-6)]GlcNAc
Outline: as §1

[10] = biological target: Gal(b1-3)GlcNAc(b1-3)Gal(b1-4)GlcNAc(b1-3)Gal(b1-4)GlcNAc(b1-2)[Gal(b1-3)GlcNAc(b1-3)Gal(b1-4)GlcNAc(b1-3)Gal(b1-4)GlcNAc(b1-6)]Man(a1-6)[Gal(b1-3)GlcNAc(b1-3)Gal(b1-4)GlcNAc(b1-3)Gal(b1-4)GlcNAc(b1-2)Man(a1-3)]Man(b1-4)GlcNAc(b1-4)[Fuc(a1-6)]GlcNAc
Outline: as §1

[11] = biological target: Gal(b1-3)GlcNAc(b1-3)Gal(b1-4)GlcNAc(b1-6)[Gal(b1-3)GlcNAc(b1-3)]Gal(b1-4)Glc
Outline: as §1

[12] = biological target: Gal(b1-3)GlcNAc(b1-3)Gal(b1-4)[Fuc(a1-3)]GlcNAc
Outline: as §1

[13] = biological target: Gal(b1-3)GlcNAc(b1-3)Gal(b1-4)[Fuc(a1-3)]GlcNAc(b1-6)[Gal(b1-3)GlcNAc(b1-3)]Gal(b1-4)Glc
Outline: as §1

[14] = biological target: Gal(b1-3)GlcNAc(b1-3)GalNAc
Outline: as §1

[15] = biological target: Gal(b1-3)GlcNAc(b1-6)Gal(b1-4)GlcNAc
Outline: as §1

[16] = biological target: Gal(b1-3)GlcNAc(b1-6)GalNAc
Outline: as §1

[17] = biological target: Gal(b1-3)GlcNAc(b1-6)[Gal(b1-3)]GalNAc
Outline: as §1

Gal(b1-3)GlcNAc6S = biological target: Gal(b1-3)GlcNAc6S
Outline: as §1

[18] = biological target: Gal(b1-3)[Fuc(a1-4)]GlcNAc
Outline: as §1

[19] = biological target: Gal(b1-3)[Fuc(a1-4)]GlcNAc(b1-2)Man
Outline: as §1

[20] = biological target: Gal(b1-3)[Fuc(a1-4)]GlcNAc(b1-2)Man(a1-3)[Gal(b1-3)[Fuc(a1-4)]GlcNAc(b1-2)Man(a1-6)]Man(b1-4)GlcNAc(b1-4)[Fuc(a1-6)]GlcNAc
Outline: as §1

[21] = biological target: Gal(b1-3)[Fuc(a1-4)]GlcNAc(b1-3)Gal(b1-3)[Fuc(a1-4)]GlcNAc
Outline: as §1

[22] = biological target: Gal(b1-3)[Fuc(a1-4)]GlcNAc(b1-3)Gal(b1-4)[Fuc(a1-3)]GlcNAc
Outline: as §1

[23] = biological target: Gal(b1-3)[Fuc(a1-4)]GlcNAc(b1-6)GalNAc
Outline: as §1

[24] = biological target: Gal(b1-3)[GlcNAc(b1-6)]GalNAc
Outline: as §1

[25] = biological target: Gal(b1-3)[Neu5Ac(a2-6)]GalNAc
Outline: as §1

[26] = biological target: Gal(b1-3)[Neu5Ac(a2-6)]GlcNAc(b1-4)Gal(b1-4)Glc
Outline: as §1

[27] = biological target: Gal(b1-3)[Neu5Ac(b2-6)]GalNAc
Outline: as §1

Gal(b1-4)Gal = biological target: Gal(b1-4)Gal
Outline: as §1

[28] = biological target: Gal(b1-4)GalNAc(a1-3)[Fuc(a1-2)]Gal(b1-4)GlcNAc
Outline: as §1

[29] = biological target: Gal(b1-4)GalNAc(b1-3)[Fuc(a1-2)]Gal(b1-4)GlcNAc
Outline: as §1

Gal(b1-4)Glc = biological target: Gal(b1-4)Glc
Outline: as §1

Gal(b1-4)Glc6S = biological target: Gal(b1-4)Glc6S
Outline: as §1

Gal(b1-4)GlcNAc = biological target: Gal(b1-4)GlcNAc
Outline: as §1

[30] = biological target: Gal(b1-4)GlcNAc(a1-6)Gal(b1-4)GlcNAc
Outline: as §1

Gal(b1-4)GlcNAc(b1-2)Man = biological target: Gal(b1-4)GlcNAc(b1-2)Man
Outline: as §1

[31] = biological target: Gal(b1-4)GlcNAc(b1-2)Man(a1-3)Man(b1-4)GlcNAc(b1-4)GlcNAc
Outline: as §1

[32] = biological target: Gal(b1-4)GlcNAc(b1-2)Man(a1-3)[Gal(b1-4)GlcNAc(b1-2)Man(a1-6)]Man(b1-4)GlcNAc(b1-4)GlcNAc
Outline: as §1

[33] = biological target: Gal(b1-4)GlcNAc(b1-2)Man(a1-3)[Gal(b1-4)GlcNAc(b1-2)Man(a1-6)]Man(b1-4)GlcNAc(b1-4)[Fuc(a1-6)]GlcNAc
Outline: as §1

[34] = biological target: Gal(b1-4)GlcNAc(b1-2)Man(a1-3)[Gal(b1-4)GlcNAc(b1-2)Man(a1-6)][Gal(b1-4)GlcNAc(b1-4)]Man(b1-4)GlcNAc(b1-4)[Fuc(a1-6)]GlcNAc
Outline: as §1

[35] = biological target: Gal(b1-4)GlcNAc(b1-2)Man(a1-3)[Gal(b1-4)GlcNAc(b1-2)Man(a1-6)][GlcNAc(b1-4)]Man(b1-4)GlcNAc(b1-4)[Fuc(a1-6)]GlcNAc
Outline: as §1

[36] = biological target: Gal(b1-4)GlcNAc(b1-2)Man(a1-3)[GlcNAc(b1-2)Man(a1-6)]Man(b1-4)GlcNAc(b1-4)GlcNAc
Outline: as §1

[37] = biological target: Gal(b1-4)GlcNAc(b1-2)Man(a1-3)[GlcNAc(b1-4)][Gal(b1-4)GlcNAc(b1-2)Man(a1-6)]Man(b1-4)GlcNAc(b1-4)GlcNAc
Outline: as §1

[38] = biological target: Gal(b1-4)GlcNAc(b1-2)Man(a1-3)[Man(a1-6)]Man(b1-4)GlcNAc(b1-4)GlcNAc
Outline: as §1

[39] = biological target: Gal(b1-4)GlcNAc(b1-2)Man(a1-6)Man(b1-4)GlcNAc(b1-4)GlcNAc
Outline: as §1

B1: BIp1-His (Cryptococcus neoformans) (protein)
chain: MFTKIFVALFAATAVLSAPVESAEKRITHTGRATFYSPSVGIGACGWQNTDEELVVALNAPQYALNADHNCGQSVRITNEQNGNQEIAKVVDLCPGCNDGDLDMSPALFGALNNNDFDQGVFPISWNFLPRDDTSSSN
For B1, the “glycan array binding signal (z-score)” value [1] was 1.31, the “glycan array binding signal (z-score)” value [2] was 0.02 and the “glycan array binding signal (z-score)” value [3] was -0.351. For the same binder, the “glycan array binding signal (z-score)” value [4] was 1.05, the “glycan array binding signal (z-score)” value [5] was -1.43 and the “glycan array binding signal (z-score)” value [6] was -0.538. The “glycan array binding signal (z-score)” value [7] was -1.38, the “glycan array binding signal (z-score)” value [8] was 1.15 and the “glycan array binding signal (z-score)” value [9] was 1.82. For the same binder, the “glycan array binding signal (z-score)” value [10] was 1.39, the “glycan array binding signal (z-score)” value [11] was 0.344 and the “glycan array binding signal (z-score)” value [12] was -0.647. For the same binder, the “glycan array binding signal (z-score)” value [13] was -1.29, the “glycan array binding signal (z-score)” value [14] was -0.119 and the “glycan array binding signal (z-score)” value [15] was 0.043. For the same binder, the “glycan array binding signal (z-score)” value [16] was -0.466, the “glycan array binding signal (z-score)” value [17] was -0.365 and the “glycan array binding signal (z-score)” value (Gal(b1-3)GlcNAc6S) was -0.273. For the same binder, the “glycan array binding signal (z-score)” value [18] was -0.995, the “glycan array binding signal (z-score)” value [19] was 0.756 and the “glycan array binding signal (z-score)” value [20] was 0.59. The “glycan array binding signal (z-score)” value [21] was -0.63, the “glycan array binding signal (z-score)” value [22] was -0.93 and the “glycan array binding signal (z-score)” value [23] was -0.396. The “glycan array binding signal (z-score)” value [24] was 0.127, the “glycan array binding signal (z-score)” value [25] was -0.702 and the “glycan array binding signal (z-score)” value [26] was -0.853. For the same binder, the “glycan array binding signal (z-score)” value [27] was -0.403, the “glycan array binding signal (z-score)” value (Gal(b1-4)Gal) was -0.815 and the “glycan array binding signal (z-score)” value [28] was -0.728. For the same binder, the “glycan array binding signal (z-score)” value [29] was -0.286, the “glycan array binding signal (z-score)” value (Gal(b1-4)Glc) was 0.274 and the “glycan array binding signal (z-score)” value (Gal(b1-4)Glc6S) was -0.16. For the same binder, the “glycan array binding signal (z-score)” value (Gal(b1-4)GlcNAc) was -0.582, the “glycan array binding signal (z-score)” value [30] was -0.263 and the “glycan array binding signal (z-score)” value (Gal(b1-4)GlcNAc(b1-2)Man) was 1.27. For the same binder, the “glycan array binding signal (z-score)” value [31] was 0.081, the “glycan array binding signal (z-score)” value [32] was -0.927 and the “glycan array binding signal (z-score)” value [33] was 1.57. For the same binder, the “glycan array binding signal (z-score)” value [34] was -1.35, the “glycan array binding signal (z-score)” value [35] was -1.5 and the “glycan array binding signal (z-score)” value [36] was -1.02. For the same binder, the “glycan array binding signal (z-score)” value [37] was -0.105, the “glycan array binding signal (z-score)” value [38] was -0.834 and the “glycan array binding signal (z-score)” value [39] was 0.116.
